Patent US20120010177A1, “MicroRNA Modulators and Method for Identifying And Using The Same” (The Wistar Institute / North Carolina State University, priority 2008, published 2012)
The name of at least one read-out is uncertain.

system: miR-21; assay: High throughput primary miR-21 FLuc reporter assay (concentration-response); assay type: cell-based, human; settings: HeLa Luc-miR-21 reporter, 48-hour incubation, four parameter logistic fit
Experimental: Primary miR-21 Assay. The primary miR-21 FLuc reporter assay is carried out with HeLa cells expressing the Luc-miR-21 reporter using a 48-hour incubation time. Active compounds that increase the luciferase response are identified based upon inhibition of miR-21.
SAR. The concentration-response data for the entire high throughput screen is plotted and modeled by a four parameter logistic fit and SAR analysis is performed according to conventional approaches (Iglese, et al. (2006) Proc. Natl. Acad. Sci. USA […]:11473-8). In brief, Class 1.1 and 1.2 are full curves containing upper and lower asymptotes with efficacy ≧80% and <80%, respectively. Class 2.1 and 2.2 are incomplete curves having only one asymptote with efficacy ≧80% and <80%, respectively. Class 3 curves show activity at only the highest concentration or are poorly fit. […] For SAR analysis, compounds associated with Class 1 and 2.1 curves are clustered using LEADSCOPE® fingerprints. […] Compounds sharing a common scaffold form a series. Candidate series and singletons are chosen for follow up studies. For each lead or series, an appropriate library design method (e.g., point substitution library or matrix library) is selected. Typically, precursors are synthesized and a library of 15-25 compounds is produced for analysis in the above-described assays.

SMILES	Curve Class
COc1cccc(NC(=O)Cn2nnc(-c3nc(-c4ccccc4)no3)c2N)c1 [Compound 24]	−2.2
Cc1cc(C)c2c(N)c(C(=O)Nc3ccccc3C(F)(F)F)sc2n1 [Compound 83]	−2.2
Cc1ccc(NC(=O)CSc2nnc(-c3cccs3)o2)cc1S(=O)(=O)N(C)C [Compound 141]	−2.2
COCC(=O)Nc1c(C(=O)Nc2ccc3c(c2)OCCO3)oc2ccccc12 [Compound 100]	−2.2
COc1ccc(C(=O)NCCC2=CCCCC2)cc1OC1CCN(C(C)C)CC1 [Compound 117]	−2.2
COc1ccc(OCC(=O)Nc2ccc(-c3nc4cc(Cl)ccc4o3)cc2)cc1 [Compound 167]	−1.2
Cc1ccc(SCC(=O)Nc2ccc3oc(-c4ccc(F)cc4)nc3c2)cc1 [Compound 140]	−2.2
Cc1ccc(-c2nc(NCc3ccco3)n(S(C)(=O)=O)n2)cc1 [Compound 37]	−2.2
Fc1cccc(Cl)c1CSc1nnc2ccccn12 [Compound 46]	−2.2
Cc1c(-c2nnc(SCC(=O)Nc3ccccc3F)o2)nnn1-c1ccc(F)cc1 [Compound 127]	−1.2
CN(C(=O)CSc1nnc(-c2ccccc2F)o1)C1CCCCC1 [Compound 143]	−2.2
COc1ccc(C(=O)Nc2nnc(C(C)C)s2)cc1OC [Compound 92]	−2.2
Cc1ccc(-c2noc(-c3nnn(CC(=O)Nc4cccc(C(F)(F)F)c4)c3N)n2)cc1 [Compound 27]	−2.4
COc1ccccc1Nc1nc(N)nc(CSc2nc(C)cc(C)n2)n1 [Compound 70]	−2.2
Cc1ccccc1Nc1nc(N)nc(CN(C)c2ccccc2)n1 [Compound 71]	−2.2
COc1nc(Nc2cccc(C(F)(F)F)c2)nc(OC)n1 [Compound 63]	−2.2
COC(=O)/C(=C/c1cccc([N+](=O)[O-])c1)NC(=O)c1ccc(OC)cc1 [Compound 119]	−2.4
COc1ccc(NC(=O)CSc2nnc(-c3cccs3)o2)cc1 [Compound 137]	−2.2
Cc1occc1C(=O)N/N=C(\S)Nc1ccccc1C(F)(F)F [Compound 211]	−2.2
COc1ccc(CNc2nc(-c3ccco3)nn2C(=O)CC(C)C)cc1 [Compound 32]	−2.2

SMILES	Curve Class
COc1ccc(OCC(=O)Nc2cc(-c3nc4ccccc4s3)ccc2C)cc1 [Compound 184]	−2.2
NC(=O)c1ccccc1NC(=O)c1ccc(-c2ccc(Br)cc2)o1 [Compound 105]	−1.2
O=C(COc1ccccc1[N+](=O)[O-])N/N=C/c1cccc(OC(=O)c2ccc3c(c2)OCO3)c1 [Compound 173]	−2.2
Cc1ccc(CNc2nc3nc(C)c(Cl)c(C)n3n2)cc1 [Compound 30]	−1.2
CC(C)(C)c1ccc(-c2nc(NC(=O)CSc3ccc4ccccc4n3)ns2)cc1 [Compound 126]	−1.1
COc1cccc(NC(=O)CSc2nnc(-c3cccs3)o2)c1 [Compound 139]	−2.2
O=C(Nc1nnc(S(=O)(=O)N2CCCC2)s1)c1ccc(F)cc1 [Compound 106]	−1.2
COc1ccc(-c2noc(-c3nnn(-c4cc(C)ccc4C)c3N)n2)cc1 [Compound 18]	−1.2
Nc1c(-c2nc(-c3ccccc3Cl)no2)nnn1-c1ccccc1F [Compound 12]	−2.1
C/C(=N\NC(=O)c1ccc(Br)o1)c1ccc(C)o1 [Compound 216]	−2.2
Cc1ccccc1OCCn1cnc2c(N)ncnc21 [Compound 239]	−2.2
CC(C)COc1ccc(C(=O)Nc2cc(-c3ccccc3)no2)cc1 [Compound 88]	−2.2
Fc1ccccc1CSc1nnc(-c2cnccn2)n1Cc1ccco1 [Compound 54]	−2.2
COc1ccc(NC(=O)c2sc3nc[nH]c(=O)c3c2C)cc1Cl [Compound 103]	−2.2
O=C(Cc1cccs1)N/N=C/C(Cl)=C/c1ccccc1 [Compound 193]	−1.2
COCCNC(=O)C(c1cccnc1)N(Cc1ccccc1)C(=O)Cn1nnc2ccccc21 (stereo not shown) [Compound 58]	−2.2
Cc1cc(C)n2c(SCc3ccccc3Cl)nnc2n1 [Compound 52]	−2.2
Cc1cc(C)cc(NC(=O)CSc2nnc(-c3ccccc3C)o2)c1 [Compound 157]	−2.2
COc1ccc(C)cc1-n1nnc(-c2nc(-c3ccccc3Cl)no2)c1N [Compound 16]	−1.2
COc1ccccc1NC(=O)C/C(C)=N/NC(=O)c1ccccn1 [Compound 188]	−1.2

SMILES	Curve Class
C/C(CCc1ccccc1)=N\NC(=O)c1ccccc1 [Compound 222]	−2.2
Nc1nc(CSCc2ccccc2)nc(N2CCOCC2)n1 [Compound 62]	−2.2
COc1ccc(-c2nn3c(C4CCCCC4)nnc3s2)cc1OC [Compound 56]	−2.4
O=C(Nc1ccccc1OC(=O)c1ccc(Cl)cc1)c1ccc(Cl)cc1 [Compound 107]	−2.2
C/C(=N\NC(=O)c1ccoc1C)c1ccc(Br)s1 [Compound 219]	−2.2
CCc1cccc(-n2nnc(-c3nc(-c4ccccc4Cl)no3)c2N)c1 [Compound 26]	−2.4
C/C(=N\NC(=O)c1ccco1)c1ccc(NC(=O)C(F)(F)F)cc1 [Compound 229]	−2.2
CCOC(=O)N1CCN(C(=O)CSCc2ccccc2Cl)CC1 [Compound 160]	−2.2
CCn1c2ccccc2c2cc(NC(=O)COC(=O)Cc3cn4ccsc4n3)ccc21 [Compound 171]	−2.2
CC(C)(C)C1CCc2nc(NC(=O)Cc3cn4ccsc4n3)sc2C1 (stereo not shown) [Compound 95]	−2.2
CC(C)c1nnc(NC(=O)COc2ccccc2[N+](=O)[O-])s1 [Compound 179]	−2.2
CCc1cccc(-n2nnc(-c3nc(-c4cccs4)no3)c2N)c1 [Compound 19]	−1.2
Cc1ccc(OCCn2cnc3c(N)ncnc32)cc1 [Compound 240]	−2.2
CSc1nsc(SCC(=O)Nc2ccc(F)cc2F)n1 [Compound 131]	−2.2
Cc1cccc(-c2nnc(SCC(=O)Nc3ccc(C)c(C)c3)o2)c1 [Compound 134]	−2.2
C/C(CC(=O)NC(C)(C)C)=N\NC(=O)c1ccccc1N [Compound 200]	−2.2
Cc1cc(C(F)(F)F)c(C#N)c(SCC(=O)Nc2nc3cc(Br)ccc3s2)n1 [Compound 129]	−2.2
COc1ccc(NC(=O)C/C(C)=N/NC(=O)c2ccccn2)c(OC)c1 [Compound 187]	−1.2
O=C(N/N=C/c1cccc([N+](=O)[O-])c1)c1nc(O)c2ccccc2n1 [Compound 220]	−2.2

same assay, conditions: Table 12 singletons; concentration-response curve class

SMILES	Curve Class
O=C(CC1NCCc2ccccc21)Nc1cccc(Cl)c1 (stereo not shown) [Compound 315]	−2.2
COCCC/N=C(\S)N/N=C/c1ccc(N(C)C)cc1Cl [Compound 270]	−2.2
c1csc(-c2nn3c(C4COc5ccccc5O4)nnc3s2)c1 (stereo not shown) [Compound 314]	−2.2
Cc1c(-c2nc(-c3ccc(C(F)(F)F)cc3)no2)n(C)oc1=O [Compound 250]	−1.2
C#CN/C(=N\CC=C)SCCc1ccccc1 [Compound 326]	−2.2
N#CC1=C(SCC(=O)Nc2ccccc2)NC(=O)CC1c1ccc(O)cc1 (stereo not shown) [Compound 275]	−2.2
Nc1ccc2c(c1)Cc1cc([N+](=O)[O-])ccc1-2 [Compound 299]	−2.2
COc1ccc(C2CC(C)(c3ccc(OC)cc3)Nc3ccccc3N2)cc1 (stereo not shown) [Compound 278]	−2.2
Cn1c(=O)[nH]c2cc(-c3noc(-c4ccc(F)cc4)n3)ccc21 [Compound 252]	−1.2
CC(/C=C/c1ccccc1)=N\N/C(S)=N/C(C)C [Compound 302]	−2.2
CN(C)c1ccc(-n2cccc2/C=N/n2cnnc2)cc1 [Compound 282]	−2.2
c1ccc(C2=Nn3c(nnc3-c3cc(-c4ccccc4)[nH]n3)SC2)cc1 [Compound 265]	−2.2
O=C(c1ccc(COCC(F)(F)F)cc1)N1CCN(c2ccccn2)CC1 [Compound 298]	−2.2
COC(=O)c1ccc(CN2C(=O)NC3(CCCCC3)C2=O)cc1 [Compound 320]	−2.2
O=C(CCS(=O)(=O)c1ccccc1)Nc1ccc(-c2nc3ccccc3s2)cc1 [Compound 249]	−1.2
CCC(=O)Oc1ccc(NC(=O)CSCc2ccccc2)cc1 [Compound 288]	−2.2
Cc1ccc2c(c1)NCC(C(=O)NC1CCC(C)CC1)O2 (stereo not shown) [Compound 305]	−2.2
Cl.Nc1cccc(CCc2nc3ccccc3[nH]2)c1 [Compound 336]	−2.2
CCOc1cccc(OCCOc2ccccc2[N+](=O)[O-])c1 [Compound 303]	−2.2
c1ccc(-c2onc3cc4c(cc23)OCCO4)cc1 [Compound 257]	−1.2
CSc1c(C#N)c(N)c(C#N)c2c1COC(C)(C)C2 [Compound 332]	−2.1
CC(C)(C)c1ccc(CN2C(=O)c3ccccc3S2(=O)=O)cc1 [Compound 308]	−2.2
C[C@]12CC[C@H]3C(=CCc4cc(O)ccc43)[C@@H]1CCC2=O [Compound 281]	−2.2
